Some of the results follow. The exact form of the protein is not confirmed.
target: T1, ELF2 (UniProt Q15723); test: DAPPL (digital affinity profiling via proximity ligation, sequencing); conditions: 10 mM Tris-HCl pH 7.5, 50 mM NaCl, 1 mM DTT, 4% glycerol, room temperature, 30 min; GST-TFs on glutathione beads, 16-mer random dsDNA library, 0.1% …; high values mean tight binding; double strand, one strand shown; scale: fold enrichment (6-mer frequency, TF over GST control)
T1 sequence: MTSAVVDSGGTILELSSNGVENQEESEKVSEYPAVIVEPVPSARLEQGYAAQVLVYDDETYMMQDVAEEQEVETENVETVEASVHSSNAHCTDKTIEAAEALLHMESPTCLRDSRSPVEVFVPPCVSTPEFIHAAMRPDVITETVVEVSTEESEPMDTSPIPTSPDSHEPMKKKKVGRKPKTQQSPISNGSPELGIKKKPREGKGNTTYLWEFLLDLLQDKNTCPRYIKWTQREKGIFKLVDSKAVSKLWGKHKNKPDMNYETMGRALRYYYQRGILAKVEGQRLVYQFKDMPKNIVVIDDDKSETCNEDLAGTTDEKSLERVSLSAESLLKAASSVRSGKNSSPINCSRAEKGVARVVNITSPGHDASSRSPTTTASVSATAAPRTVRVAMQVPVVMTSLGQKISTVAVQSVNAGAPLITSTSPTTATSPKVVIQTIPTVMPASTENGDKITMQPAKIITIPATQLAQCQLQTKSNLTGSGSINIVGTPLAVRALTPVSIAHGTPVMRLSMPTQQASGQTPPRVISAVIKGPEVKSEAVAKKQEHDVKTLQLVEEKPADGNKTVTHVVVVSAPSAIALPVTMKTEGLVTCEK

Sequence	binding signal
AAAAGT	1.02
TACATC	1.74
CCGGAA	9.21
CATCGA	1.05
TACTGA	1.07
TCCCAC	1.36
ATTGAT	1.3
CATTCC	1.28
TACGAA	1.21
ACAAGC	1.07
CGACGA	1.1
CTAACG	1.09
TAACAA	1.2
AAGTAC	1.69
GATGAA	1.15
CTTGCC	1.22
ATCGAT	1.09
ACCGTC	1.11
CTACTT	2.2
AAACCA	1.19

Random excerpt: 2 entries already listed.
Sequence	binding signal
TACTGA	1.07
ACAAGC	1.07

The list goes on:

Sequence	binding signal
TTAACT	1.2
AAAAGA	1.11
TCTCGA	1.27
CGTACT	1.21
GGTATA	1.08
TGTGCT	1.13
AACTTA	1.18
GAACTC	1.35
ATTTCA	1.3
CGACTA	1.32
ACCGAT	1.05
GGCTCA	1.23
ATGAGC	1.16
GTTAAC	1.12
CGGCTA	1.1
CCCGGA	4.79
AAGTTT	1.5
TCCTTT	1.74
TAACGA	1.07

Source: article PMC7862700
